“And” between values parts separate entries of the source, which are not always exact repeats. Equal values may be shown once. The campaign covered roughly 300,000 compounds. About 5,400 (1.8%) were called active. This list was built around the results that the source calls inconclusive (neither active nor inactive); the mix of calls is not that of the screen. Calls come from the whole dose curve; tested in HEK293 cells. Potencies of inconclusive entries are doubtful fits and often do not repeat.
Assay: qHTS for inhibitors of binding or entry into cells for Marburg Virus
Details: Marburg virus pseudotyped entry inhibition, cell reporter; activity change, negative = inhibition: at 37.8 µM (top of the series) unless noted
% is set by controls: 0 for no effect and ±100 for the full control effect; potency is the fitted concentration of half-maximal effect.

| SMILES | Potency | activity change, negative = inhibition |
| --- | --- | --- |
| CCCCOc1ccc(Br)cc1/C(C)=N/NC1=NCCN1 | active: 10 µM | – |
| O=C1c2cccc3cc(Br)cc(c23)C(=O)N1Nc1ccc(Br)cc1 | inconclusive: 35.5 µM [inhibitor, single point] | – |
| Cc1ccc(CC(=O)c2ccc(Cl)cc2)cc1 | inconclusive: 6.31 µM [activator, full curve, poor fit] | – |
| CC(C)(C)c1ccc(OCc2ccc(C(=O)N/N=C/c3ccc([N+](=O)[O-])cc3)o2)cc1 | inconclusive: 35.5 µM [inhibitor, single point] | – |
| CC(=O)Nc1ccc(NC(=O)COC(=O)c2c(C)nn(-c3ccccc3)c2C)cc1 | – | inactive: 1.54% |
| COc1ccc2sc(N(CCCN(C)C)C(=O)c3ccc(S(=O)(=O)N4CCCc5ccccc54)cc3)nc2c1 | inconclusive: 35.5 µM [inhibitor, single point] | – |
| Cc1nn(-c2ccccc2)c2c1C(c1ccncc1)C(C#N)=C(N)O2 (stereo not drawn) | – | inactive: -5.21% [at 46.1 µM] |
| COc1ccc(-n2nc([N+](=O)[O-])c(=NCCc3ccc(OC)c(OC)c3)n2O)cc1 | inconclusive: 11.2 µM [inhibitor, single point] | – |
| O=C(COC(=O)Cc1cccs1)Nc1cc(S(=O)(=O)N2CCOCC2)ccc1Cl | inconclusive: 7.08 µM [inhibitor, partial curve, poor fit] | – |
| O=[N+]([O-])c1ccc(NC(=S)N/C(=N/CS(=O)(=O)c2ccccc2)c2ccccc2)cc1 | inconclusive: 12.6 µM [inhibitor, single point] | – |
| O=C(CCn1c(=O)oc2ccccc21)N1CCOCC1 | inconclusive: 29.1 µM [activator, single point] | – |
| CCCSc1ncc(Cl)c(C(=O)N(Cc2ccc(Cl)cc2)Cc2ccco2)n1 | inconclusive: 0.562 µM [inhibitor, full curve, poor fit] | – |
| COc1ccc(Cl)cc1NS(=O)(=O)c1cccc(C(=O)NCCCN2CCCC2=O)c1 | – | inactive: 15.8% |
| COc1ccc(N=C(N(C)C)P(=O)(N(C)C)N(C)C)cc1 | inactive and inconclusive: 35.5 µM [inhibitor, single point] | – |
| COc1ccc(S(=O)(=O)Nc2cccc(N(C)S(C)(=O)=O)c2)cc1Br | inconclusive: 25.1 µM [inhibitor, partial curve, poor fit] | – |
| O=C1CC(c2cccc(Br)c2)c2cc3c(cc2N1)CCC3 (stereo not drawn) | inconclusive: 7.3 µM [inhibitor, partial curve] | – |
| COc1ccc(CNc2nc3ccccc3n2C)c(OC)c1 | – | inactive: -22.8% |
| COc1ccccc1NC(=O)CC1C(=O)NCCN1C(=O)Nc1ccc(Cl)c(Cl)c1 (stereo not drawn) | inconclusive: 29.1 µM [inhibitor, single point] | – |
| COc1ccc(-n2c(=S)[nH]c3cc(C(=O)NC4CCCCC4)ccc3c2=O)c(OC)c1 | inconclusive: 7.08 µM [inhibitor, partial curve] | – |
| O=C(CS(=O)(=O)c1ccccc1)Nc1nc(-c2ccccc2)cs1 | – | inactive: -3.92% [at 46.1 µM] |
| COc1ccc(-c2nc(N)nc(C)c2Oc2ccccc2Br)c(O)c1 | inconclusive: 35.5 µM [inhibitor, single point] | – |
| O=C(/C=C/Nc1ccccc1)c1ccc(Oc2ncccn2)cc1 | inconclusive: 11.2 µM [inhibitor, single point] | – |

| SMILES | Potency | activity change, negative = inhibition |
| --- | --- | --- |
| CCN(CC)CCNC(=S)Nc1ccc(Cl)cc1 | inconclusive: 12.6 µM [inhibitor, single point] | – |
| CCc1ccccc1Nc1sc(C(=O)c2cccc(OC)c2)c(N)c1S(=O)(=O)c1ccccc1 | inconclusive: 22.4 µM [inhibitor, single point] | – |
| Cc1cccc(N2CCN(C(=O)c3c(C)nn(Cc4ccccc4Cl)c3C)CC2)c1C | inconclusive: 6.31 µM [inhibitor, full curve, poor fit] | – |
| CC(Oc1ccc(Cl)cc1Cl)c1ccnc2nc(N3CCOCC3)nn12 (stereo not drawn) | inconclusive: 11.2 µM [inhibitor, partial curve, poor fit] | – |
| O=C(Nc1ccc(OCc2ccccc2)cc1)c1cccc([N+](=O)[O-])c1 | inconclusive: 17.8 µM [inhibitor, single point] | – |
| O=C(CC1C(=O)NCCN1CC(c1ccccc1)c1ccccc1)NC1CC1 (stereo not drawn) | inconclusive: 5.62 µM [activator, full curve] | – |
| CCCCC1(Cc2cccc([N+](=O)[O-])c2)C(=O)N(c2ccccc2)N(c2ccccc2)C1=O | active: 15.8 µM | – |
| Cc1ccc(S(=O)(=O)N2CCN(C(=O)NCc3ccc(F)cc3)CC2)c(C)c1 | inconclusive: 5.62 µM [inhibitor, single point] | – |
| CCOc1ccc(OCc2cccc(C(=O)N3CCCCCC3)c2)cc1 | inconclusive: 1.78 µM [inhibitor, full curve, poor fit] | – |
| O=C(CN1CCC(NC(=O)c2ccc(F)cc2)CC1)NCc1ccccc1F | inconclusive: 3.66 µM [activator, single point] | – |
| CCCNC(=O)C1CCN(S(=O)(=O)c2c(C)noc2/C=C\c2ccc(OC)cc2)CC1 | – | inactive: -2.74% |
| CC1CCCN(C(=O)CCc2nnc(-c3ccc4c(c3)OCO4)o2)C1 (stereo not drawn) | – | inactive: 18.8% |
| CCNc1nc(-c2cc3ccccc3o2)cs1 | inconclusive: 0.794 µM [inhibitor, full curve, poor fit] | – |
| O=S(=O)(Nc1cc(Sc2cccc3cccnc23)c(O)c2ccccc12)c1ccc(F)cc1 | active: 6.51 µM | – |
| COc1ccccc1CNCc1cccc(Oc2ccccc2)c1 | active: 11.2 µM | – |
| NS(=O)(=O)c1ccc(CCNC(=O)Cc2ccc(Cl)cc2)cc1 | – | inactive: -4.71% |
| Cc1cc(NC(=O)c2ccccc2)ccc1NC(=O)Cc1ccccc1 | – | inactive: 2.91% |
| CN(C(=S)Oc1ccc(C(=O)Nc2ccccc2)cc1)c1ccccc1 | inconclusive: 8.91 µM [inhibitor, partial curve] | – |
| CCN1CCC(O)(/C=C/c2ccc(C)cc2)C(C(=O)/C=C/c2ccc(C)cc2)C1 (stereo not drawn) | inconclusive: 22.4 µM [inhibitor, single point] | – |
| COC(=O)N/N=C/c1cn(CCCOc2ccccc2)c2ccccc12 | active: 15.8 µM | – |
| CCOC(=O)N=Nc1c(O)n(C)c2ccccc12 | inconclusive: 10.3 µM [activator, partial curve, poor fit] | – |

From PubChem BioAssay AID540276 (National Center for Advancing Translational Sciences (NCATS), 2011)
